This is an account of results in patent US20150191542A1.

The chains behind the UniProt entries cited, without tags or fusion partners. Residues count along the entry.
UniProt P26718, residues 73-216: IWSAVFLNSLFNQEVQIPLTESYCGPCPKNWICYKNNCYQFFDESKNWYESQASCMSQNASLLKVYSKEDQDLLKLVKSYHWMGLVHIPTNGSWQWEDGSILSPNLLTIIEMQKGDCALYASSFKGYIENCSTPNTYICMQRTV

These are yes or no findings as the source states them, for the method shown. Some entries that bind do so weakly or less than the wild type. Where a sequence is shown, tags or fusion partners need not be part of it.

For this assay, the target named is NKG2D-Fc (human) (UniProt P26718). The assay can be described thus: SPR, 'Binding of MICA*001-BirA to NKG2D-Fc' as titled on the sheet; concentrations and the immobilised partner are not given. (In general: Surface plasmon resonance follows binding to a sensor surface in real time, without labels.)

B1: MICA*001 extracellular domain recombinant protein (full extracellular domain with a BirA or a Poly-His Tag) (ligand, not shown: small tags and cut ends)
chain: EPHSLRYNLTVLSWDGSVQSGFLTEVHLDGQPFLRCDRQKCRAKPQGQWAEDVLGNKTWDRETRDLTGNGKDLRMTLAHIKDQKEGLHSLQEIRVCEIHEDNSTRSSQHFYYDGELFLSQNLETKEWTMPQSSRAQTLAMNVRNFLKEDAMKTKTHYHAMHADCLQELRRYLKSGVVLRRTVPPMVNVTRSEASEGNITVTCRASGFYPWNITLSWRQDGVSLSHDTQQWGDVLPDGNGTYQTWVATRICQGEEQRFTCYMEHSGNHSTHPVPS
For B1, the binding result is “binds”.
